According to doi:10.1101/803932:
No constants are given. Whether binding was seen depends on the method and setting. Binding seen in cells or lysates may run through a third protein. Some results given as binding are weak or reduced against the parent protein; the word gives no strength. Tags and fused reporters may be left off the sequences shown.

Sequences of proteins named here, by UniProt entry; tags and fusion partners are left off.
UniProt Q27368: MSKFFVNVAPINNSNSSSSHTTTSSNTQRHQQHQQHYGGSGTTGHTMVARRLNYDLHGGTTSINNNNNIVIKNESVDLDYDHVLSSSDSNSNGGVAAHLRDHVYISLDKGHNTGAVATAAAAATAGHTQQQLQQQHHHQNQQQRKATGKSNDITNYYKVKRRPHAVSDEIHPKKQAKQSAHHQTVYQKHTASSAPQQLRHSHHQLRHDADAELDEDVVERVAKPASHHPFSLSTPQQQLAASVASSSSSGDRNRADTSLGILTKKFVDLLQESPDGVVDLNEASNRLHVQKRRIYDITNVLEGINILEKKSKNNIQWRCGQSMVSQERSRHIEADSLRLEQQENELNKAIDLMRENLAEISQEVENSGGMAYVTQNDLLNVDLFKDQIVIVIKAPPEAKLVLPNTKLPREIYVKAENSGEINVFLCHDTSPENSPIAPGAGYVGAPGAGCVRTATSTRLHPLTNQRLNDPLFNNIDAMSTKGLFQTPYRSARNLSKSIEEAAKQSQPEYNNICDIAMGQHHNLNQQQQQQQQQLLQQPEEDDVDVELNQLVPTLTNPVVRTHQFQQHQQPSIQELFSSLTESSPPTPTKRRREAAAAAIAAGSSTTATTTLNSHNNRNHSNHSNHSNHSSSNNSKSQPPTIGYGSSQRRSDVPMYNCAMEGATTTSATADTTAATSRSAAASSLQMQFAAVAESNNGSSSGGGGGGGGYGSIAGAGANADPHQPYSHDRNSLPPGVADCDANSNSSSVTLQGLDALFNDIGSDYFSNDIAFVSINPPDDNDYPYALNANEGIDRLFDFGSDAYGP

Target: T1, GFP-BAF (barrier-to-autointegration factor, wild type) (Drosophila) (UniProt Q9VLU0)
T1 sequence: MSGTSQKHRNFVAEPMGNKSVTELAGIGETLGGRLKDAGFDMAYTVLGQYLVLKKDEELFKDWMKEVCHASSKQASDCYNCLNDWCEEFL
Experiment: co-IP

With E2F1 (from UniProt Q27368 1-805) as the substance, how does the binding read?
The binding was “binds”.
